The values below come from patent US20130280279A1, “PHARMACEUTICAL COMPOSITION OF A COMPLEX OF AN ANTI-DIG ANTIBODY AND DIGOXIGENIN THAT IS CONJUGATED TO A PEPTIDE” (HOFFMANN-LA ROCHE INC., priority 2011, published 2013).

No constants are given. Whether binding was seen depends on the method and setting. Binding can be weak; no strength is given.

In the assay the target is mono-digoxigenated protein DIG-myoglobin. The assay is described as follows: SPR, binding to mono-digoxigenated DIG-myoglobin. In general terms: SPR reads the build-up and loss of mass on a sensor chip optically.

B1: murine <Dig> IgG1 kappa from mouse hybridoma clone 19-11 (antibody, V domains shown)
VH: EVQLVESGGGLVKPGGSLKLSCAVSGFTFSDYAMSWIRQTPENRLEWVASINIGATYAYYPDSVKGRFTISRDNAKNTLFLQMSSLGSEDTAMYYCARPGSPYEYDKAYYSMAYWGPGTSVTVSS
VL: DVQMTQSTSSLSASLGDRVTISCRASQDIKNYLNWYQQKPGGTVKLLIYYSSTLLSGVPSRFSGRGSGTDFSLTITNLEREDIATYFCQQSITLPPTFGGGTKLEIK
Take B1: the binding result is reported as “binds”.

B2: humanized <Dig> IgG (antibody, V domains shown)
VH: QVQLVESGGGLVKPGGSLRLSCAASGFTFSDYAMSWIRQAPGKGLEWVSSINIGATYIYYADSVKGRFTISRDNAKNSLYLQMNSLRAEDTAVYYCARPGSPYEYDKAYYSMAYWGQGTTVTVSS
VL: DIQMTQSPSSLSASVGDRVTITCRASQDIKNYLNWYQQKPGKAPKLLIYYSSTLLSGVPSRFSGSGSGTDFTLTISSLQPEDFATYYCQQSITLPPTFGGGTKVEIKR
Consider B2, for which the binding result is listed as “binds”.
